B1: hβG-e-B7: human β-glucuronidase fused to Ig-like C2-type and Ig-hinge-like domains, TM and cytoplasmic tail of murine B7-1 (protein)
chain: LQGGMLYPQESPSRECKELDGLWSFRADFSDNRRRGFEEQWYRRPLWESGPTVDMPVPSSFNDISQDWRLRHFVGWVWYEREVILPERWTQDLRTRVVLRIGSAHSYAIVWVNGVDTLEHEGGYLPFEADISNLVQVGPLPSRLRITIAINNTLTPTTLPPGTIQYLTDTSKYPKGYFVQNTYFDFFNYAGLQRSVLLYTTPTTYIDDITVTTSVEQDSGLVNYQISVKGSNLFKLEVRLLDAENKVVANGTGTQGQLKVPGVSLWWPYLMHERPAYLYSLEVQLTAQTSLGPVSDFYTLPVGIRTVAVTKSQFLINGKPFYFHGVNKHEDADIRGKGFDWPLLVKDFNLLRWLGANAFRTSHYPYAEEVMQMCDRYGIVVIDECPGVGLALPQFFNNVSLHHHMQVMEEVVRRDKNHPAVVMWSVANEPASHLESAGYYLKMVIAHTKSLDPSRPVTFVSNSNYAADKGAPYVDVICLNSYYSWYHDYGHLELIQLQLATQFENWYKKYQKPIIQSEYGAETIAGFHQDPPLMFTEEYQKSLLEQYHLGLDQKRRKYVVGELIWNFADFMTEQSPTRVLGNKKGIFTRQRQPKSAAFLLRERYWKIANETRYPHSVAKSQCLENSPFTVDEQKLISEEDLADFSTPNITESGNPSADTKRITCFASGGFPKPRFSWLENGRELPGINTTISQDPESELYTISSQLDFNTTRNHTIKCLIKYGDAHVSEDFTWEKPPEDPPDSKNTLVLFGAGFGAVITVVVIVVIIKCFCKHRSCFRRNEASRETNNSLTFGPEEALAEQTVFL
B2: mβG-e-B7: murine β-glucuronidase fused to immunoglobulin-like C2-type extracellular region, transmembrane domain and cytoplasmic tail of murine B7-1 antigen (protein)
chain: LKGGMLFPKESPSRELKALDGLWHFRADLSNNRLQGFEQQWYRQPLRESGPVLDMPVPSSFNDITQEAALRDFIGWVWYEREAILPRRWTQDTDMRVVLRINSAHYYAVVWVNGIHVVEHEGGHLPFEADISKLVQSGPLTTCRITIAINNTLTPHTLPPGTIVYKTDTSMYPKGYFVQDTSFDFFNYAGLHRSVVLYTTPTTYIDDITVITNVEQDIGLVTYWISVQGSEHFQLEVQLLDEDGKVVAHGTGNQGQLQVPSANLWWPYLMHEHPAYMYSLEVKVTTTESVTDYYTLPVGIRTVAVTKSKFLINGKPFYFQGVNKHEDSDIRGKGFDWPLLVKDFNLLRWLGANSFRTSHYPYSEEVLQLCDRYGIVVIDECPGVGIVLPQSFGNESLRHHLEVMEELVRRDKNHPAVVMWSVANEPSSALKPAAYYFKTLITHTKALDLTRPVTFVSNAKYDADLGAPYVDVICVNSYFSWYHDYGHLEVIQPQLNSQFENWYKTHQKPIIQSEYGADAIPGIHEDPPRMFSEEYQKAVLENYHSVLDQKRKEYVVGELIWNFADFMTNQSPLRVIGNKKGIFTRQRQPKTSAFILRERYWRIANETGGHGSGPRTQCFGSRPFTFVDEQKLISEEDLADFSTPNITESGNPSADTKRITCFASGGFPKPRFSWLENGRELPGINTTISQDPESELYTISSQLDFNTTRNHTIKCLIKYGDAHVSEDFTWEKPPEDPPDSKNTLVLFGAGFGAVITVVVIVVIIKCFCKHRSCFRRNEASRETNNSLTFGPEEALAEQTVFL

Key:
[1] = test system: EJ human bladder cancer cells; assay: Immunoblot of β-glucuronidase expression in stable EJ transfectants; type: cell-based; conditions: whole cell lysates of stable EJ transfectants; higher
[2] = test system: 3T3 fibroblasts; assay: Surface immunofluorescence (flow cytometer) of transiently transfected 3T3 fibroblasts; type: cell-based, murine

Molecule | expression level compared to eβG-e-B7 (HA band normalized to β-actin) [1] | surface expression of human β-glucuronidase constructs ([2]; transiently transfected 3T3 cells) | surface level of membrane bound mouse β-glucuronidase compared to mβG-BGP-B7 ([2]; transiently transfected 3T3, higher)
B1 | about 2.5 fold | highly expressed | 
B2 | about 2.5 fold |  | about two

Reference: patent publication US20080176225A1, “MEMBRANE BOUND REPORTER GENE SYSTEM” (priority 2007, published 2008)
